Paper PMC8291497 (ACS Chemical Biology, 2021)

assay: general procedure: Fmoc solid-phase peptide synthesis; HBTU / Oxyma Pure; conditions: whole synthesis, 214 nm, scale of the general procedure 0.1 mmol

Row | Substance | final HPLC purity
1 | CNPEDLSQKE(pY)SDI I NTQE MYNDDLI HF | > 85%
2 | CNPEDLSQKEYSDIINTQEMYNDDLIHF | > 90%
3 | Dansyl )-NN G-NGYEνPTYKFFE | > 90%
4 | Dansyl-NNG-NGYENPTYKφFE | > 90%
5 | Dansyl-NNG-NGYεNPTYKFFE | > 90%
6 | Dansyl-NNG-NGψENPTYKFFE | > 90%
7 | Dansyl-NNG-NγYENPTYKFFE | > 90%
8 | NGYENPTYKFFE | > 95%
9 | TA MRA-NNG-NGYENPTYKFFE | > 95%
10 | dansyl-NN G-NGFENPTYKFFE | > 95%
11 | dansyl-NN G-NGYENATYKFFE | > 95%
12 | dansyl-NN G-NGYENGTYKFFE | > 95%
13 | dansyl-NN G-NGYENPTFKFFE | > 95%
14 | dansyl-NN G-NGYENPTYAFFE | > 95%
15 | dansyl-NN G-NGYENPTYGFFE | > 95%
16 | dansyl-NN G-NGYENPTYKAFE | > 95%
17 | dansyl-NN G-NGYENPTYKFAE | > 95%
18 | dansyl-NN G-NGYENPTYKFFE | > 95%
19 | dansyl-NN G-NGYENPTYKFGE | > 95%
20 | dansyl-NN G-NGYENPTYKFNal1E | > 95%
21 | dansyl-NN G-NGYENPTYKGFE | > 95%
22 | dansyl-NN G-NGYENPTYKNal1FE | > 95%
23 | dansyl-NN G-NGYENPTpYKFFE | > 95%

Where a sequence shows no end group, the ends are not given.
